Test results published in paper PMC6018503.
Results are given in words; binding and its absence hold for the method and conditions named. For some assays here: Binding calls can cover weak binding; strength is not graded here. For some assays here: In cells and extracts the contact can be indirect.

T1: AtRFC2 (Arabidopsis thaliana) (UniProt Q9CAM7)
T1 sequence: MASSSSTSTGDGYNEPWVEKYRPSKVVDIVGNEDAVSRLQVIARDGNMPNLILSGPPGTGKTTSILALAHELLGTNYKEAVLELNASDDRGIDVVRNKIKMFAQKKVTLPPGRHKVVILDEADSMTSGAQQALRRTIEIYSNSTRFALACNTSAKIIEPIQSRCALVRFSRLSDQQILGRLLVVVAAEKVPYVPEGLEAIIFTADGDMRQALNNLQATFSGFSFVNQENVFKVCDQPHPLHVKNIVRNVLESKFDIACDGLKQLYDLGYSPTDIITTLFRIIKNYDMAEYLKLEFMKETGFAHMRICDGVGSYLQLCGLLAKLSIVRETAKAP


Key:
[1] = target: T1, AtRFC2 (Arabidopsis thaliana); experiment: split reporter; BiFC; YFP^N (aa 1-155) and YFP^C (aa 156-239) fusions (pCAMBIA-SPYNE, pCAMBIA-SPYCE) co-expressed in tobacco (Nicotiana benthamiana) leaf epidermal cells through Agrobacterium GV3101; confocal microscopy of YFP; only the two named fusions
[2] = target: AtRFC3 (Arabidopsis thaliana); experiment: two-hybrid; yeast two-hybrid; full-length ORFs in pGADT7 (AD) and pGBKT7 (BD); co-transformed strains spotted on SD-L-T and SD-L-T-H-A plates; empty AD or BD plasmids as negative controls
[3] = target: AtRFC3 (Arabidopsis thaliana); experiment: split reporter; BiFC; YFP^N (aa 1-155) and YFP^C (aa 156-239) fusions (pCAMBIA-SPYNE, pCAMBIA-SPYCE) co-expressed in tobacco (Nicotiana benthamiana) leaf epidermal cells through Agrobacterium GV3101; confocal microscopy of YFP; only the two named fusions
[4] = target: AtRFC3 (Arabidopsis thaliana); experiment: split reporter; BiFC in tobacco leaf epidermal cells with truncated AtRFC proteins, pairs that include AtRFC1 or a truncated AtRFC1; whether the other small subunits were co-expressed is not said

Row | binding [3] | Molecule | also measured
1 | – | AtRFC3 Δ1–247 (Arabidopsis thaliana) (domain or fragment) | binding [1]: binds
2 | – | AtRFC1 (protein, UniProt Q9C587 1-956) MSDIRKWFMKAHEKGNGSAPKSTSSKAGPVKNAAETAPIKSEQASEDLETADRRKTSKYFGKDKTKVKDEKEVEAIPAKRKLKTESDDLVKPRPRKVTKVVDDDDDDFDVPISRKTRDTTPSKKLKSGSGRGIASKTVDNDDDDDGEDKETPLKSAGRGRGGRAAPGASTGGRGRGGGRGGFMNFGERKDPPHKGEKEVPEGTPDCLAGLTFVISGTLDSLEREEAEDLIKRHGGRITGSVSKKTTYLLCDEDIGGRKSEKAKELGTKFLTEDGLFDIIRSSKPVKKSLPERSNKGTEKICAPPKTSPQKEETRGKPLAKSSPKKVPPAKGKNKIIETSLPWTEKYRPKVPNEIVGNQSLVTQLHNWLSHWHDQFGGTGSKGKGKKLNDAGSKKAVLLSGTPGIGKTTSAKLVSQMLGFQAVEVNASDSRGKANSNIAKGIGGSNANSVKELVNNEAMAANFDRSKHPKTVLIMDEVDGMSAGDRGGVADLIASIKISKIPIICICNDRYSQKLKSLVNYCLPLNYRKPTKQQMAKRLMHIAKAEGLEINEIALEELAERVNGDIRLAVNQLQYMSLSMSVIKYDDIRQRLLSSAKDEDISPFTAVDKLFGYNGGKLRMDERIDLSMSDPDLVPLLIQENYLNYRPSGKDEAKRMDLLARAAESIADGDIINVQIRRYRQWQLSQSCCVASSILPASLLHGSREVLEQGERNFNRFGGWLGKNSTAGKNRRLMEDLHVHVLASRESSAGRETLRVDYLPLLLSRLTSPLQTLPKDEAVSEVVDFMNSYSISQEDFDTILELGKFKGRENPMEGVPPPVKAALTKKYNEMNKTRMVRVADMVQLPGVKKAPKKRIAAMLEPTVDSLRDEDGEPLADNEEGNGSDAEEDSEEATDGEKLESNLKNLNARGIQVELDLKGAGSSGSRKAAGKGRGRGKAADTSAEKKATGRGSGAKRKR | binding [2]: no binding
3 | no binding | AtRFC2 Δ314–333 (domain or fragment, UniProt Q9CAM7 1-313) MASSSSTSTGDGYNEPWVEKYRPSKVVDIVGNEDAVSRLQVIARDGNMPNLILSGPPGTGKTTSILALAHELLGTNYKEAVLELNASDDRGIDVVRNKIKMFAQKKVTLPPGRHKVVILDEADSMTSGAQQALRRTIEIYSNSTRFALACNTSAKIIEPIQSRCALVRFSRLSDQQILGRLLVVVAAEKVPYVPEGLEAIIFTADGDMRQALNNLQATFSGFSFVNQENVFKVCDQPHPLHVKNIVRNVLESKFDIACDGLKQLYDLGYSPTDIITTLFRIIKNYDMAEYLKLEFMKETGFAHMRICDGVGSY | –
4 | binds | OsRFC4 (protein, UniProt Q7XRX1 1-335) MDASSSSAPDLADAYDIPWVEKYRPTRVADVGGNSDAVARLQDIARDGNMPNLILSGPPGTGKTTSILSLAHELLGPSYREAVLELNASDDRGLDVVRNKIKMFAQKKVTLQPGRHKIVILDEADSMTSGAQQALRRTMEIYSNTTRFALACNTSSKIIEPIQSRCAIVRFSRLSDQEILGRLMIVVAAEKVPYVPEGLEAIIFTADGDMRQALNNLQATVSGFRFVNQENVFKVCDQPHPLHVKNMVKNVLDGKFDEACSALKQLYDLGYSPTDIITTLFRVIKNYDMAEYLKLELLKETGFAHMRICDGVGSFLQLSGLLAKFALVRETAKAS | –
5 | – | AtRFC1 Δ897-956 (domain or fragment, UniProt Q9C587 1-896) MSDIRKWFMKAHEKGNGSAPKSTSSKAGPVKNAAETAPIKSEQASEDLETADRRKTSKYFGKDKTKVKDEKEVEAIPAKRKLKTESDDLVKPRPRKVTKVVDDDDDDFDVPISRKTRDTTPSKKLKSGSGRGIASKTVDNDDDDDGEDKETPLKSAGRGRGGRAAPGASTGGRGRGGGRGGFMNFGERKDPPHKGEKEVPEGTPDCLAGLTFVISGTLDSLEREEAEDLIKRHGGRITGSVSKKTTYLLCDEDIGGRKSEKAKELGTKFLTEDGLFDIIRSSKPVKKSLPERSNKGTEKICAPPKTSPQKEETRGKPLAKSSPKKVPPAKGKNKIIETSLPWTEKYRPKVPNEIVGNQSLVTQLHNWLSHWHDQFGGTGSKGKGKKLNDAGSKKAVLLSGTPGIGKTTSAKLVSQMLGFQAVEVNASDSRGKANSNIAKGIGGSNANSVKELVNNEAMAANFDRSKHPKTVLIMDEVDGMSAGDRGGVADLIASIKISKIPIICICNDRYSQKLKSLVNYCLPLNYRKPTKQQMAKRLMHIAKAEGLEINEIALEELAERVNGDIRLAVNQLQYMSLSMSVIKYDDIRQRLLSSAKDEDISPFTAVDKLFGYNGGKLRMDERIDLSMSDPDLVPLLIQENYLNYRPSGKDEAKRMDLLARAAESIADGDIINVQIRRYRQWQLSQSCCVASSILPASLLHGSREVLEQGERNFNRFGGWLGKNSTAGKNRRLMEDLHVHVLASRESSAGRETLRVDYLPLLLSRLTSPLQTLPKDEAVSEVVDFMNSYSISQEDFDTILELGKFKGRENPMEGVPPPVKAALTKKYNEMNKTRMVRVADMVQLPGVKKAPKKRIAAMLEPTVDSLRDEDGEPLADNEEGNGSDAEEDSEEATDGEK | binding [4]: no binding
6 | no binding | AtRFC2 Δ294–333 (domain or fragment, UniProt Q9CAM7 1-293) MASSSSTSTGDGYNEPWVEKYRPSKVVDIVGNEDAVSRLQVIARDGNMPNLILSGPPGTGKTTSILALAHELLGTNYKEAVLELNASDDRGIDVVRNKIKMFAQKKVTLPPGRHKVVILDEADSMTSGAQQALRRTIEIYSNSTRFALACNTSAKIIEPIQSRCALVRFSRLSDQQILGRLLVVVAAEKVPYVPEGLEAIIFTADGDMRQALNNLQATFSGFSFVNQENVFKVCDQPHPLHVKNIVRNVLESKFDIACDGLKQLYDLGYSPTDIITTLFRIIKNYDMAEYLKL | –
7 | – | AtRFC2 (protein, UniProt Q9CAM7 1-333) MASSSSTSTGDGYNEPWVEKYRPSKVVDIVGNEDAVSRLQVIARDGNMPNLILSGPPGTGKTTSILALAHELLGTNYKEAVLELNASDDRGIDVVRNKIKMFAQKKVTLPPGRHKVVILDEADSMTSGAQQALRRTIEIYSNSTRFALACNTSAKIIEPIQSRCALVRFSRLSDQQILGRLLVVVAAEKVPYVPEGLEAIIFTADGDMRQALNNLQATFSGFSFVNQENVFKVCDQPHPLHVKNIVRNVLESKFDIACDGLKQLYDLGYSPTDIITTLFRIIKNYDMAEYLKLEFMKETGFAHMRICDGVGSYLQLCGLLAKLSIVRETAKAP | binding [2]: binds
8 | – | AtRFC5 (protein, UniProt Q8VXX4 1-354) MLWVDKYRPKSLDKVIVHEDIAQKLKKLVSEQDCPHLLFYGPSGSGKKTLIMALLKQIYGASAEKVKVENRAWKVDAGSRTIDLELTTLSSTNHVELTPSDAGFQDRYIVQEIIKEMAKNRPIDTKGKKGYKVLVLNEVDKLSREAQHSLRRTMEKYSSSCRLILCCNSSSKVTEAIKSRCLNVRINAPSQEEIVKVLEFVAKKESLQLPQGFAARIAEKSNRSLRRAILSLETCRVQNYPFTGNQVISPMDWEEYVAEIATDMMKEQSPKKLFQVRGKVYELLVNCIPPEVILKRLLHELLKKLDSELKLEVCHWAAYYEHRMRLGQKAIFHIEAFVAKFMSIYKNFLISTFG | binding [2]: no binding
9 | binds | OsRFC1 (protein, UniProt Q2R2B4 1-1021) MSSDIRKWFMKAQDKNGGAAKPAGTTALAKKPVLSIPEKPSAAPSMAACDQDCSARRKTSKYFASKTEKEEDTSAGKGTGRGLPKRKLQKVSDELEDDMKPLPAKEVHKEEEDDDDDDFVAPSKRKTPVKPPPSKKLKGASTAEAHGKTGLDDDNEDKMDEDAKTPSKASGSGRGRGRGRGRGGRGAGAAHGKTIGLDDDGEEDKMDEDAKTPSKAAGRGRGGASGGRGRGGGGRGFMNFGERKDPPHKGEKEVPEGAPDCLTGLTFVISGTLDSLEREEATDLIKRYGGRVTGSISKKTNYLLADEDVGGVKSNKAKELGVPFLTEDGLFDMIRKSKPAKATVAKHQSDKNSEKQQKSPMKSSPVKVERRDGNQITTGKNISPKSNKGSASIDNQKVNIVDRGSLQWTEKYRPKVPNDIVGNQSMVKQLHDWLRSWEDQFLHSGQKGKGKKQADSGAKKAVLLSGPPGIGKTTTAKVVSQMLGLQAIEVNASDSRGKADSKIEKGVGGSTSNSIKELISNATLNYSNNRLKRPKAVLVMDEVDGMSAGDRGGVADLIASIKMSKIPIICICNDRYSQKLKSLVNYCLLLNFRKPTKQQMGKRLMEIAKKEGLQAQENAMEELAERVHGDIRMALNHLQYMSLSQSVVKYDDIRQRLNSSTKDEDISPFTAVDKLFGFNGGRLRMDERIDLSMSDPDLVPLIIQENYINYRPITVGKDDSGVKRMNFLARAAESIADADIVNVQIRRYRQWQLSQAACLSSSIVPAALMHGNREILEAGERNFNRFGGWLGKYSTTNKNIRLLEDAHSHILASQQANLDRESLRLDYLTLLLRQLTDPLKTMPKDEAVQKVVEFMDTYSLSQEDFDTIVELSKFKGHPNPMDGIQPAVKSALTKAYKQGSSSRVVRAADLVNIPGMKKPLKKRVAAILEPVGESLPEENGVASSEGDEEDSSDAENNDELVPGDTKPKLDLQSDKKKGIQVQLDLKSNGNGLNSKKMPAGRSKASGSAGKAAGGSGGKRKR | –
10 | binds | AtRFC4 Δ1–213 (domain or fragment, UniProt Q93ZX1 214-339) ITYLQSATRLFGSTITSTDLLNVSGVVPLEVVNKLFTACKSGDFDIANKEVDNIVAEGYPASQIINQLFDIVAEADSDITDMQKAKICKCLAETDKRLVDGADEYLQLLDVASSTICALSEMAQDF | –
11 | no binding | AtRFC2 Δ1–224 (domain or fragment, UniProt Q9CAM7 225-333) VNQENVFKVCDQPHPLHVKNIVRNVLESKFDIACDGLKQLYDLGYSPTDIITTLFRIIKNYDMAEYLKLEFMKETGFAHMRICDGVGSYLQLCGLLAKLSIVRETAKAP | –
